Results published in US20170189504A1, “NOVEL PEPTIDES AND COMBINATION OF PEPTIDES FOR USE IN IMMUNOTHERAPY AGAINST VARIOUS CANCERS” (immatics biotechnologies GmbH, priority 2015, published 2017).
For part of these data: Expression values are those of the mRNA of the gene that encodes the peptide; a gene is named only where it was looked up.

Columns and labels:
HLA-A*02 = test: Identification and relative LC-MS quantitation of HLA-A*02-presented tumor-associated peptides on tissue samples (presentation profiles, Tables 13A, 13B, 15, FIG. 1); parameters: species or system human; key to Presentation score NHL / Presentation score CLL / Presentation score BRCA / Presentation score AML / Presentation score GB / Presentation score NSCLC / Presentation score GBC_CCC / Presentation score UEC / Presentation score MEL / Presentation score OSCAR / Presentation score GC / Presentation score UBC / Presentation score OC / Presentation score RCC / Presentation score CRC / Presentation score PCA / Presentation score HCC / Presentation score PC / Presentation score SCLC: specifically presented on tumors (++++); very highly over-presented on tumors compared to a panel of normal tissues (+++); highly over-presented on tumors compared to a panel of normal tissues (++); over-presented on tumors compared to a panel of normal tissues (+); settings: for Presentation score NHL: non-Hodgkin lymphoma (N = 18) vs panel of normal tissues (N = 262); for Presentation score NSCLC: non-small cell lung cancer (N = 90) vs panel of normal tissues (N = 262); for Presentation score OC: ovarian cancer (N = 20) vs panel of normal tissues (N = 262); for Peptide Presentation on cancer entities: Table 13A, HLA-A*02-binding tumor-associated peptides, cancer entities on which the peptide was found presented; for Presentation score OSCAR: esophageal cancer, including cancer of the gastric-esophageal junction (N = 17) vs panel of normal tissues (N = 262)
source genes (mRNA) [1] = test: Expression profiling of source genes by in-house RNASeq of tumor and normal tissues (Table 18, FIG. 2); parameters: species or system human; key: very highly over-expressed in tumors compared to a panel of normal tissues (+++); highly over-expressed in tumors compared to a panel of normal tissues (++); over-expressed in tumors compared to a panel of normal tissues (+); settings: source gene of peptide; for Expression score BRCA: BRCA tumors vs panel of normal tissues; for Expression score OSCAR: esophageal cancer incl. gastric-esophageal junction (N = 11) vs panel of normal tissues; for Expression score NHL: non-Hodgkin lymphoma (N = 10) vs panel of normal tissues; for Expression score NSCLC: non-small cell lung cancer (N = 11) vs panel of normal tissues; for Expression score OC: ovarian cancer (N = 12) vs panel of normal tissues; for Expression score SCLC: small cell lung cancer (N = 10) vs panel of normal tissues; for Expression score UEC: uterine cancer (N = 10) vs panel of normal tissues; for Expression score GB: glioblastoma (N = 24) vs panel of normal tissues
source genes (mRNA) [2] = test: Gene and exon expression of source genes, TCGA tumor samples compared with normal tissue samples (Lonsdale, 2013) (Table 17); parameters: species or system human; settings: for Target coverage: over-expression category of source gene, LAML: Acute Myeloid Leukemia (N = 173); for Target coverage: over-expression category of source gene, GBM: Glioblastoma multiforme (N = 169); for Target coverage: over-expression category of source gene, LUAD: Lung adenocarcinoma (N = 517); for Target coverage: over-expression category of source gene, LUSC: Lung squamous cell carcinoma (N = 503); for Target coverage: over-expression category of source gene, DLBC: Lymphoid neoplasm diffuse large B-cell lymphoma (N = 48); for Target coverage: over-expression category of source gene, OV: Ovarian serous cystadenocarcinoma (N = 309); for Target coverage: over-expression category of source gene, UCEC: Uterine corpus endometrial carcinoma (N = 546)
[3] = cutoff more than 2-fold above highest 75% percentile of normal tissue samples

241: peptide found in HEATR1 (gene looked up) (KTIQQLETV; listed as Homo sapiens) [compound 241]
Presentation score NHL (HLA-A*02; HLA-A*02 peptides): ++++ | Presentation score NSCLC (HLA-A*02; HLA-A*02 peptides): ++++ | Presentation score OC (HLA-A*02; HLA-A*02 peptides): ++++ | Peptide Presentation on cancer entities (HLA-A*02): NSCLC, OC, NHL | Expression score BRCA (source genes (mRNA) [1]): + | Expression score OSCAR (source genes (mRNA) [1]): + | Expression score NHL (source genes (mRNA) [1]): + | Expression score NSCLC (source genes (mRNA) [1]): + | Expression score OC (source genes (mRNA) [1]): + | Expression score SCLC (source genes (mRNA) [1]): + | Expression score UEC (source genes (mRNA) [1]): + | Over-expression category of source gene (target coverage), BLCA (source genes (mRNA) [2]; BLCA = Bladder urothelial carcinoma (N = 408), same cutoff): A (>=50% of tumors above the cutoff) | Over-expression category of source gene (target coverage), BRCA (source genes (mRNA) [2]; BRCA = Breast cancer (N = 1104), tumors more than 2-fold above highest 75% percentile of normal tissues): A (>=50% of tumors above the cutoff) | Over-expression category of source gene (target coverage), CHOL (source genes (mRNA) [2]; CHOL = Cholangiocarcinoma (N = 36), same cutoff): A (>=50% of tumors above the cutoff) | Over-expression category of source gene (target coverage), COAD (source genes (mRNA) [2]; COAD = Colon and rectal adenocarcinoma (N = 462), same cutoff): A (>=50% of tumors above the cutoff) | Over-expression category of source gene (target coverage), DLBC (source genes (mRNA) [2]; DLBC = Lymphoid neoplasm diffuse large B-cell lymphoma (N = 48), same cutoff): A (>=50% of tumors above the cutoff) | Over-expression category of source gene (target coverage), ESCA (source genes (mRNA) [2]; ESCA = Esophageal cancer (N = 185), same cutoff): A (>=50% of tumors above the cutoff) | Over-expression category of source gene (target coverage), GBM (source genes (mRNA) [2]; GBM = Glioblastoma multiforme (N = 169), same cutoff): A (>=50% of tumors above the cutoff) | Over-expression category of source gene (target coverage), KICH (source genes (mRNA) [2]; KICH = Kidney chromophobe (N = 66), same cutoff): A (>=50% of tumors above the cutoff) | Over-expression category of source gene (target coverage), KIRC (source genes (mRNA) [2]; KIRC = Clear cell kidney carcinoma (N = 534), same cutoff): A (>=50% of tumors above the cutoff) | Over-expression category of source gene (target coverage), KIRP (source genes (mRNA) [2]; KIRP = Papillary kidney carcinoma (N = 291), same cutoff): A (>=50% of tumors above the cutoff) | Over-expression category of source gene (target coverage), LAML (source genes (mRNA) [2]; LAML = Acute Myeloid Leukemia (N = 173), same cutoff): A (>=50% of tumors above the cutoff) | Over-expression category of source gene (target coverage), LGG (source genes (mRNA) [2]; LGG = Lower grade glioma (N = 534), same cutoff): A (>=50% of tumors above the cutoff) | Over-expression category of source gene (target coverage), LIHC (source genes (mRNA) [2]; LIHC = Liver hepatocellular carcinoma (N = 374), same cutoff): A (>=50% of tumors above the cutoff) | Over-expression category of source gene (target coverage), LUAD (source genes (mRNA) [2]; LUAD = Lung adenocarcinoma (N = 517), same cutoff): A (>=50% of tumors above the cutoff) | Over-expression category of source gene (target coverage), LUSC (source genes (mRNA) [2]; LUSC = Lung squamous cell carcinoma (N = 503), same cutoff): A (>=50% of tumors above the cutoff) | Over-expression category of source gene (target coverage), OV (source genes (mRNA) [2]; OV = Ovarian serous cystadenocarcinoma (N = 309), same cutoff): A (>=50% of tumors above the cutoff) | Over-expression category of source gene (target coverage), PAAD (source genes (mRNA) [2]; PAAD = Pancreatic ductal adenocarcinoma (N = 179), same cutoff): A (>=50% of tumors above the cutoff) | Over-expression category of source gene (target coverage), PRAD (source genes (mRNA) [2]; PRAD = Prostate adenocarcinoma (N = 498), same cutoff): A (>=50% of tumors above the cutoff) | Over-expression category of source gene (target coverage), READ (source genes (mRNA) [2]; READ = Colon and rectal adenocarcinoma (N = 167), same cutoff): A (>=50% of tumors above the cutoff) | Over-expression category of source gene (target coverage), SKCM (source genes (mRNA) [2]; SKCM = Skin cutaneous melanoma (N = 473), same cutoff): A (>=50% of tumors above the cutoff) | Over-expression category of source gene (target coverage), STAD (source genes (mRNA) [2]; STAD = Stomach adenocarcinoma (N = 415), same cutoff): A (>=50% of tumors above the cutoff) | Over-expression category of source gene (target coverage), UCEC (source genes (mRNA) [2]; UCEC = Uterine corpus endometrial carcinoma (N = 546), same cutoff): A (>=50% of tumors above the cutoff)

57: peptide found in BCAT1 (gene looked up) (TVFTDHMLTV; listed as Homo sapiens) [compound 57]
Presentation score OSCAR (HLA-A*02; HLA-A*02 peptides): ++++ | Presentation score NHL (HLA-A*02; HLA-A*02 peptides): ++++ | Presentation score NSCLC (HLA-A*02; HLA-A*02 peptides): ++++ | Presentation score OC (HLA-A*02; HLA-A*02 peptides): ++++ | Peptide Presentation on cancer entities (HLA-A*02): NSCLC, OSCAR, OC, NHL | Expression score GB (source genes (mRNA) [1]): ++ | Expression score NHL (source genes (mRNA) [1]): + | Expression score NSCLC (source genes (mRNA) [1]): ++ | Expression score OC (source genes (mRNA) [1]): +++ | Expression score UEC (source genes (mRNA) [1]): +++ | Target coverage: over-expression category of source gene, LAML (source genes (mRNA) [2]; [3]): B (>= 20% of tumors above the cutoff, but <50%) | Target coverage: over-expression category of source gene, GBM (source genes (mRNA) [2]; [3]): C (>=5% of tumors above the cutoff, but <20%) | Target coverage: over-expression category of source gene, LUAD (source genes (mRNA) [2]; [3]): C (>=5% of tumors above the cutoff, but <20%) | Target coverage: over-expression category of source gene, LUSC (source genes (mRNA) [2]; [3]): C (>=5% of tumors above the cutoff, but <20%) | Target coverage: over-expression category of source gene, DLBC (source genes (mRNA) [2]; [3]): C (>=5% of tumors above the cutoff, but <20%) | Target coverage: over-expression category of source gene, OV (source genes (mRNA) [2]; [3]): B (>= 20% of tumors above the cutoff, but <50%) | Target coverage: over-expression category of source gene, UCEC (source genes (mRNA) [2]; [3]): C (>=5% of tumors above the cutoff, but <20%)

61: peptide found in MSH2 (gene looked up) (AIVKEIVNI; listed as Homo sapiens) [compound 61]
Presentation score OSCAR (HLA-A*02; HLA-A*02 peptides): ++++ | Presentation score GC (HLA-A*02; HLA-A*02 peptides, gastric cancer (N = 29) vs panel of normal tissues (N = 262)): ++++ | Presentation score NSCLC (HLA-A*02; HLA-A*02 peptides): ++++ | Peptide Presentation on cancer entities (HLA-A*02): GC, NSCLC, OSCAR | Expression score BRCA (source genes (mRNA) [1]): + | Expression score OSCAR (source genes (mRNA) [1]): + | Expression score GBC_CCC (source genes (mRNA) [1]; gallbladder adenocarcinoma and cholangiocarcinoma (N = 3) vs panel of normal tissues): + | Expression score GB (source genes (mRNA) [1]): + | Expression score NHL (source genes (mRNA) [1]): + | Expression score NSCLC (source genes (mRNA) [1]): + | Expression score OC (source genes (mRNA) [1]): ++ | Expression score SCLC (source genes (mRNA) [1]): +++ | Expression score UEC (source genes (mRNA) [1]): + | Target coverage: over-expression category of source gene, LAML (source genes (mRNA) [2]; [3]): B (>= 20% of tumors above the cutoff, but <50%) | Target coverage: over-expression category of source gene, BLCA (source genes (mRNA) [2]; Bladder urothelial carcinoma (N = 408), cutoff more than 2-fold above highest 75% percentile of normal tissue samples): B (>= 20% of tumors above the cutoff, but <50%) | Target coverage: over-expression category of source gene, BRCA (source genes (mRNA) [2]; Breast cancer (N = 1104), cutoff more than 2-fold above highest 75% percentile of high and medium risk normal tissue samples): B (>= 20% of tumors above the cutoff, but <50%) | Target coverage: over-expression category of source gene, READ (source genes (mRNA) [2]; Colon and rectal adenocarcinoma (N = 167), cutoff more than 2-fold above highest 75% percentile of normal tissue samples): B (>= 20% of tumors above the cutoff, but <50%) | Target coverage: over-expression category of source gene, COAD (source genes (mRNA) [2]; Colon and rectal adenocarcinoma (N = 462), cutoff more than 2-fold above highest 75% percentile of normal tissue samples): B (>= 20% of tumors above the cutoff, but <50%) | Target coverage: over-expression category of source gene, ESCA (source genes (mRNA) [2]; Esophageal cancer (N = 185), cutoff more than 2-fold above highest 75% percentile of normal tissue samples): B (>= 20% of tumors above the cutoff, but <50%) | Target coverage: over-expression category of source gene, GBM (source genes (mRNA) [2]; [3]): B (>= 20% of tumors above the cutoff, but <50%) | Target coverage: over-expression category of source gene, LGG (source genes (mRNA) [2]; Lower grade glioma (N = 534), cutoff more than 2-fold above highest 75% percentile of normal tissue samples): C (>=5% of tumors above the cutoff, but <20%) | Target coverage: over-expression category of source gene, LUAD (source genes (mRNA) [2]; [3]): C (>=5% of tumors above the cutoff, but <20%) | Target coverage: over-expression category of source gene, LUSC (source genes (mRNA) [2]; [3]): B (>= 20% of tumors above the cutoff, but <50%) | Target coverage: over-expression category of source gene, DLBC (source genes (mRNA) [2]; [3]): B (>= 20% of tumors above the cutoff, but <50%) | Target coverage: over-expression category of source gene, OV (source genes (mRNA) [2]; [3]): A (>=50% of tumors above the cutoff) | Target coverage: over-expression category of source gene, SKCM (source genes (mRNA) [2]; Skin cutaneous melanoma (N = 473), cutoff more than 2-fold above highest 75% percentile of normal tissue samples): B (>= 20% of tumors above the cutoff, but <50%) | Target coverage: over-expression category of source gene, STAD (source genes (mRNA) [2]; Stomach adenocarcinoma (N = 415), cutoff more than 2-fold above highest 75% percentile of normal tissue samples): C (>=5% of tumors above the cutoff, but <20%) | Target coverage: over-expression category of source gene, UCEC (source genes (mRNA) [2]; [3]): B (>= 20% of tumors above the cutoff, but <50%)
